Experimental data as given in PubChem BioAssay AID274 (DTP/NCI, 2004).
The list does not hold the whole screen: it covers a few groups of compounds. Not every dose and run of a compound is shown. T/C is the treated group as % of the vehicle group. Where survival is the endpoint, this PubChem deposit counts one and a half times the control or more as active, and values a quarter to a half above the control carry no call in these data; other NCI protocols may use other cut-offs. Some T/C values are marked as having no survivor count here; that says nothing about deaths at the dose. Schedule codes are those of the source, taken here to give the interval after Q, in days (D) or hours (H), and the number of doses after X. Some doses were run more than once; the results are listed from low to high.

Tested on: BDF1 mice, Lewis lung carcinoma iv, survival T/C
Test: NCI In Vivo Anticancer Drug Screen. Data for tumor model Lewis Lung Carcinoma (intravenous) in B6D2F1 (BDF1) mice
Conditions: T/C endpoint: median survival time, higher T/C = longer survival
Procedure: The antitumor activity of compounds was measured in mice bearing transplantable tumors. Survival or tumor size were measured and the results are expressed as the measurement made in the treated group (T) divided by the measurement made in the vehicle treated control group (C). The tumor model used in this assay is Lewis Lung Carcinoma (intravenous) in B6D2F1 (BDF1) mice

CN(CCCl)CCCl
T/C (dose: 0.06 mg/kg/injection, schedule: Q01DX009 (ip), vehicle: saline): 104 % of control [survivor count not shown]
T/C (dose: 0.12 mg/kg/injection, schedule: Q01DX009 (ip), vehicle: saline): 105 % of control [survivor count not shown]
T/C (dose: 0.25 mg/kg/injection, schedule: Q01DX009 (ip), vehicle: saline): 109 % of control [survivor count not shown]
T/C (dose: 0.39 mg/kg/injection, schedule: Q04DX003 (ip), vehicle: other): 116 % of control [survivor count not shown]
T/C (dose: 0.5 mg/kg/injection, schedule: Q01DX009 (ip), vehicle: saline): 125 % of control [survivor count not shown]
T/C (dose: 0.59 mg/kg/injection, schedule: Q04DX003 (ip), vehicle: saline): 98 [survivor count not shown] and 107 % of control [survivor count not shown]
T/C (dose: 0.65 mg/kg/injection, schedule: Q01DX001 (ip), vehicle: other): 115 % of control [survivor count not shown]
T/C (dose: 0.65 mg/kg/injection, schedule: Q04DX003 (ip), vehicle: other): 97 % of control [survivor count not shown]
T/C (dose: 0.88 mg/kg/injection, schedule: Q04DX003 (ip), vehicle: saline): 107 [survivor count not shown] and 119 % of control [survivor count not shown]
T/C (dose: 1.08 mg/kg/injection, schedule: Q01DX001 (ip), vehicle: other): 107 % of control [survivor count not shown]
T/C (dose: 1.08 mg/kg/injection, schedule: Q04DX003 (ip), vehicle: other): 112 % of control [survivor count not shown]
T/C (dose: 1.33 mg/kg/injection, schedule: Q04DX003 (ip), vehicle: saline): 102 [survivor count not shown] and 133 % of control [survivor count not shown]
T/C (dose: 1.8 mg/kg/injection, schedule: Q01DX001 (ip), vehicle: other): 121 % of control [survivor count not shown]
T/C (dose: 2.0 mg/kg/injection, schedule: Q04DX003 (ip), vehicle: saline): 105 [survivor count not shown] and 138 % of control [survivor count not shown]
T/C (dose: 3.0 mg/kg/injection, schedule: Q04DX003 (ip), vehicle: saline): 106 % of control [survivor count not shown]
T/C (dose: 324.0 micrograms/kg/injection, schedule: Q04DX003 (ip), vehicle: other): 94 % of control [survivor count not shown]
T/C (dose: 324.0 micrograms/kg/injection, schedule: Q04DX003 (ip), vehicle: saline): 93 % of control [survivor count not shown]
T/C (dose: 540.0 micrograms/kg/injection, schedule: Q04DX003 (ip), vehicle: saline): 100 % of control [survivor count not shown]
T/C (dose: 900.0 micrograms/kg/injection, schedule: Q04DX003 (ip), vehicle: saline): 104 % of control [survivor count not shown]
